Test results from PMC3510053.
Results are given in words; binding and its absence hold for the method and conditions named. Some results given as binding are weak or reduced against the parent protein; the word gives no strength. Sequences can lack the tags named with a protein.

Amino acid sequences for entries named in this document (tags omitted). Residues count along the entry.
MBP-SPT5N (SPT5-N, aa 112–393) (Q9V460, residues 112-393): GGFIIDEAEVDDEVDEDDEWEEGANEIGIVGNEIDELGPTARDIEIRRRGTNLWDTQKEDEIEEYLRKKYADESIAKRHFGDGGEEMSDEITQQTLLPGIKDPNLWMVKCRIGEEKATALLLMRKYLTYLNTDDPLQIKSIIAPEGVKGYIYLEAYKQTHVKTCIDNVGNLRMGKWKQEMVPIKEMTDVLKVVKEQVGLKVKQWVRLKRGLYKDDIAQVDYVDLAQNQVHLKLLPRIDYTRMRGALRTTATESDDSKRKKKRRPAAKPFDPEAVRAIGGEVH
MBP-SPT5M (SPT5 M, aa 389–733) (Q9V460, residues 389-733): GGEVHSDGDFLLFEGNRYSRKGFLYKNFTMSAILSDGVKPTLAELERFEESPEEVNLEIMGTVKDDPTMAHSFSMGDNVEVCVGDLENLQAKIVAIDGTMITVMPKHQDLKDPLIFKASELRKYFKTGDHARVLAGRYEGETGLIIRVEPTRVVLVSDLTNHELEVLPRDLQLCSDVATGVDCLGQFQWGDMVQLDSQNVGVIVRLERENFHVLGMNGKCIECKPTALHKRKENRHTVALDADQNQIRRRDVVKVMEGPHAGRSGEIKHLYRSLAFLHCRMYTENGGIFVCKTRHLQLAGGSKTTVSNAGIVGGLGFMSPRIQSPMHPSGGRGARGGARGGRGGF
MBP-SPT5C (SPT5 C, aa 732–1054) (Q9V460, residues 732-1054): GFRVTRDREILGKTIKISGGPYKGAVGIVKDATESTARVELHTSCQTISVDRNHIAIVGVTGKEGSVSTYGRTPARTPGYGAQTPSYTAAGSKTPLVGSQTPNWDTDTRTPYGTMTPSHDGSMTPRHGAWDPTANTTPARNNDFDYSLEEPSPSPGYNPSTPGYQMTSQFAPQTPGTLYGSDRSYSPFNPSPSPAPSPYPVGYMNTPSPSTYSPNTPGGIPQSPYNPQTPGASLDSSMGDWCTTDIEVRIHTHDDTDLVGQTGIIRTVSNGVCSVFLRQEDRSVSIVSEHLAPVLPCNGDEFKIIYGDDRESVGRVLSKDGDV

Legend:
Assay in all cases: pull-down; MBP-SPT5 fragments bound to amylose beads, equivalent molar concentrations, incubated with GST proteins; three washes with 150 mM NaCl, 0.1% NP40, 20 mM Tris for 10 min at 4°C; eluted by boiling in SDS-loading buffer; anti-GST Western; both purified
[1] = target: MBP-SPT5M (SPT5 M, aa 389–733) (Drosophila) (UniProt Q9V460)
[2] = target: MBP-SPT5C (SPT5 C, aa 732–1054) (Drosophila) (UniProt Q9V460)
[3] = target: MBP-SPT5N (SPT5-N, aa 112–393) (Drosophila) (UniProt Q9V460)

binding [1]: binds
binding [2]: no binding
binding [3]: binds
B1: GST-MSL1 PEHE domain (aa 751–1039) (domain or fragment, UniProt P50535 751-1039)
chain: TPTPGSTPQHAVTSSMDQEISAAKSKSKAAEQIATPLTPQSNSSVSSTTSTIRKTLNNCSPHTYSKATARSGKLQSRFRTATFPYSTRTWEDQEFHCDNEFFLEEADELLADNPSLEIPKWRDVPVPPSSDKIDTELLSDATFERRHQKYVKDEVDRKCRDARYMKEQIRLEQLRMRRNQDEVLVALDPLRASTFYPLPEDIEAIQFVNEVTVQAFGENVVNMEARDDFGVPWVDAIEAPTSIARSKALAEPVATLASKKIPTTAAEARHQENHSSYVFPKRRKRQKNR
